The values that follow come from paper PMC7417480.

No constants are given. Whether binding was seen depends on the method and setting. In cells and extracts the contact can be indirect. Some entries that bind do so weakly or less than the wild type. Tags and fused reporters may be left off the sequences shown.

The target in one experiment is T1, GST-BAG5 (UniProt Q9UL15).
T1 sequence: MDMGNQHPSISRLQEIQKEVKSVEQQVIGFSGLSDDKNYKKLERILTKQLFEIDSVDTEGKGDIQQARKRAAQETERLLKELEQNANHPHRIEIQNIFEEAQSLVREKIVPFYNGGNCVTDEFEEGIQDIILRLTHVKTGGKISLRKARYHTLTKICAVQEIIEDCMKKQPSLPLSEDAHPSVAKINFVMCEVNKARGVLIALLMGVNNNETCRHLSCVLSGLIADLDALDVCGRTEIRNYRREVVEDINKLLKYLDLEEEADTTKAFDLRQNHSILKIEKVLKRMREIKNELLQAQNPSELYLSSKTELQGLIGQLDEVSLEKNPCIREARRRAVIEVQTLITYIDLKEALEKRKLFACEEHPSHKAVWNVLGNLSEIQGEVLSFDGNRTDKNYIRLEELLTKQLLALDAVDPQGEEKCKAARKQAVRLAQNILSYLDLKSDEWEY
In words: pull-down; 10 μg GST fusion protein on Glutathione Sepharose 4B beads incubated with 500 μg lysate (RIPA) of transfected H4 cells overnight at 4°C, three RIPA washes, Western blot; only the target purified. (In general: A western blot detects proteins with antibodies after separation by electrophoresis.)

The next experiment deals with T2, FLAG-BAG5 (UniProt Q9UL15).
T2 sequence: T1 sequence
Description: co-IP; IP of FLAG-BAG5 from lysates of H4 cells transfected with FLAG-BAG5 and/or p62-HA; blots with anti-HA and anti-FLAG.

As for “p62-C-HA (from UniProt Q13501 103-440) (domain or fragment)”, in the experiment with GST-BAG5, the binding entry is “binds”.
As to p62-HA (from UniProt Q13501 1-440), the binding entry with FLAG-BAG5 and with GST-BAG5 was “binds” in each case.
For the substance “p62-N-HA (from UniProt Q13501 1-102) (domain or fragment)”, in the experiment with GST-BAG5, the binding entry is recorded as “no binding”.
